In assay [1] the target is CAMSA2147 CJIE1 prophage H-fiber C-terminal domain (tail fiber protein H) (Campylobacter jejuni CAMSA2147 (CJIE1 prophage)). Briefly: pull-down; Pierce His Protein Interaction Pull-Down Kit; 200 ug purified His-tagged H-fiber (co-expressed with the chaperone) immobilised on cobalt chelate resin as bait; C. jejuni CAMSA2147 or RM1221 cell lysate as prey; eluate run on SDS-PAGE and the band identified by LC-MS; only the target purified.

Assay [2] has as its target RM1221 CJIE1 prophage H-fiber C-terminal domain (tail fiber protein H, CJE0231) (Campylobacter jejuni RM1221 (CJIE1 prophage)). The assay is described as above.

These are yes or no findings as the source states them, for the method shown. In cells and extracts the contact can be indirect. Binding can be weak; no strength is given.

These results are taken from PMC11464564.

B1: major outer membrane protein (MOMP) of C. jejuni CAMSA2147 (protein, UniProt P80672 23-424)
chain: TPLEEAIKDVDVSGVLRYRYDTGNFDKNFVNNSNLNNSKQDHKYRAQVNFSAAIADNFKAFVQFDYNAADGGYGANGIKNDQKGLFVRQLYLTYTNEDVATSVIAGKQQLNLIWTDNAIDGLVGTGVKVVNNSIDGLTLAAFAVDSFMAAEQGADLLEHSNISTTSNQAPFKVDSVGNLYGAAAVGSYDLAGGQFNPQLWLAYWDQVAFFYAVDAAYSTTIFDGINWTLEGAYLGNSLDSELDDKTHANGNLFALKGSIEVNGWDASLGGLYYGDKEKASTVVIEDQGNLGSLLAGEEIFYTTGSRLNGDTGRNIFGYVTGGYTFNETVRVGADFVYGGTKTEAANHLGGGKKLEAVARVDYKYSPKLNFSAFYSYVNLDQGVNTNESADHSTVRLQALYKF
In the case of B1, the binding result in assay [1] is “binds”; in assay [2], “no binding”.

B2: major outer membrane protein (MOMP) of C. jejuni RM1221 (protein, UniProt P80672 23-424)
chain: B1 chain
For B2, the binding entry in assay [2] is on record as “binds”.
